Data as given in the supplement of paper PMC12067093, “Discovery and optimisation of a covalent ligand for TRIM25 and its application to targeted protein ubiquitination” (Chemical Science, 2025).
Some of the results follow.

By UniProt entry, the sequences of proteins in these tests, tags left out. Where a name states a change or a piece, a line headed by the entry shows the natural chain unless it says otherwise.
UniProt Q9Y3A5: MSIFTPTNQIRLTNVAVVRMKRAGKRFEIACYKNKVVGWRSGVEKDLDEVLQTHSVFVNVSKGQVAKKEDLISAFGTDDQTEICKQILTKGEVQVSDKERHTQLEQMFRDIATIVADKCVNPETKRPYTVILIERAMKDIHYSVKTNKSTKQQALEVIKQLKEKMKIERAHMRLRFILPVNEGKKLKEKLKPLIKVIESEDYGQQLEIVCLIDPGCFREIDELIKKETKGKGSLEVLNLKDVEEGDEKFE
UniProt O94979: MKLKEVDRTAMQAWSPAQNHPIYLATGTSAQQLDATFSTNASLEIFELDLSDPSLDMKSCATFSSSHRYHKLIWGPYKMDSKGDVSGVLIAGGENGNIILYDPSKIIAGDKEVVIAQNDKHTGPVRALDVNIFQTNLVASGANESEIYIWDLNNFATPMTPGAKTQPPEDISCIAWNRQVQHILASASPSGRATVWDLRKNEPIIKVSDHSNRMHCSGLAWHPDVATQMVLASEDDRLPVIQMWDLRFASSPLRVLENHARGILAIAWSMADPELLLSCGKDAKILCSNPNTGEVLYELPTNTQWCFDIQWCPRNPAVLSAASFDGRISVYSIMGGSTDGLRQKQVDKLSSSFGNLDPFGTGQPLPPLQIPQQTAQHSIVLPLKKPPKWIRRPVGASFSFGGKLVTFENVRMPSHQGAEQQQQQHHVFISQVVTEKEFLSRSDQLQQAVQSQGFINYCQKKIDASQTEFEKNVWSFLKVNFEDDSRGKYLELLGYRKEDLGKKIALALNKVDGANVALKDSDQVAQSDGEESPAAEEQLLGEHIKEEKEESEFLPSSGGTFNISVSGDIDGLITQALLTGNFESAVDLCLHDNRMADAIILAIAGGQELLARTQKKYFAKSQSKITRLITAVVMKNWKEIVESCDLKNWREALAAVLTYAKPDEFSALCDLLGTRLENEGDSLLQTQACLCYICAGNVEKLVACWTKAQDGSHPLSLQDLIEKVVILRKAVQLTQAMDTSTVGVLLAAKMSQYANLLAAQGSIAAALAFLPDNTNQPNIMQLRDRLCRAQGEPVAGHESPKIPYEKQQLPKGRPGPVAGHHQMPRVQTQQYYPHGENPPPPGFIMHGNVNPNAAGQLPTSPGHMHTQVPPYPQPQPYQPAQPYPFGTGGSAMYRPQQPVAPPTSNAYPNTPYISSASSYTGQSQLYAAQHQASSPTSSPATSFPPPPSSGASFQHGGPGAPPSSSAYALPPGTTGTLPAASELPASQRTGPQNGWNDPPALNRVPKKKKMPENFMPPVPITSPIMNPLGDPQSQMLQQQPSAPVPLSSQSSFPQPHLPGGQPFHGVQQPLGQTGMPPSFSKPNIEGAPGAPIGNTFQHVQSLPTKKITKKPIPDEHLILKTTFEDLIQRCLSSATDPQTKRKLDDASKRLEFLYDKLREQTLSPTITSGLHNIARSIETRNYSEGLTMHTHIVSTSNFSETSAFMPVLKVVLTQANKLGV
UniProt Q9NR31: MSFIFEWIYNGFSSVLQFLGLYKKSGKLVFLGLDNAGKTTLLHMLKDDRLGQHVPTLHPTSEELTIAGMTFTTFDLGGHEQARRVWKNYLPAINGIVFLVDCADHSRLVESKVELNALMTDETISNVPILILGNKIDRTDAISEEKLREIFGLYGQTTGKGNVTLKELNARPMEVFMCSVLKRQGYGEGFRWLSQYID
UniProt Q96GD3: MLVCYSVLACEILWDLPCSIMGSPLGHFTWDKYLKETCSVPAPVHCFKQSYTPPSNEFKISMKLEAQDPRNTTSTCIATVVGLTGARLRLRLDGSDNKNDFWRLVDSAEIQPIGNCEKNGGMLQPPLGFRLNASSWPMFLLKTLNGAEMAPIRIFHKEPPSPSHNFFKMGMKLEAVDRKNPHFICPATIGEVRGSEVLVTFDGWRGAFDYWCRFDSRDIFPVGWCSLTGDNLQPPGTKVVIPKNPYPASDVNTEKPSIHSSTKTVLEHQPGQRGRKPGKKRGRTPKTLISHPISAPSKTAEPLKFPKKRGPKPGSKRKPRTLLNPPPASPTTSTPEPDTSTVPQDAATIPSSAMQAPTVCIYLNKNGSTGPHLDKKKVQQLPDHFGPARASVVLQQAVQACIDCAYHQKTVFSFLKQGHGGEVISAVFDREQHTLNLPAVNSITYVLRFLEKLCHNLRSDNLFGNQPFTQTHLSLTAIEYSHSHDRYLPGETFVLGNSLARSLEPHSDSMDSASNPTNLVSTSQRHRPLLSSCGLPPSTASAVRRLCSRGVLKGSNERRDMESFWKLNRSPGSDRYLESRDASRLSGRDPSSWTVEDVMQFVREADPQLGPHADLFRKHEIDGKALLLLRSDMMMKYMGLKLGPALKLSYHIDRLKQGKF
UniProt Q8WU76: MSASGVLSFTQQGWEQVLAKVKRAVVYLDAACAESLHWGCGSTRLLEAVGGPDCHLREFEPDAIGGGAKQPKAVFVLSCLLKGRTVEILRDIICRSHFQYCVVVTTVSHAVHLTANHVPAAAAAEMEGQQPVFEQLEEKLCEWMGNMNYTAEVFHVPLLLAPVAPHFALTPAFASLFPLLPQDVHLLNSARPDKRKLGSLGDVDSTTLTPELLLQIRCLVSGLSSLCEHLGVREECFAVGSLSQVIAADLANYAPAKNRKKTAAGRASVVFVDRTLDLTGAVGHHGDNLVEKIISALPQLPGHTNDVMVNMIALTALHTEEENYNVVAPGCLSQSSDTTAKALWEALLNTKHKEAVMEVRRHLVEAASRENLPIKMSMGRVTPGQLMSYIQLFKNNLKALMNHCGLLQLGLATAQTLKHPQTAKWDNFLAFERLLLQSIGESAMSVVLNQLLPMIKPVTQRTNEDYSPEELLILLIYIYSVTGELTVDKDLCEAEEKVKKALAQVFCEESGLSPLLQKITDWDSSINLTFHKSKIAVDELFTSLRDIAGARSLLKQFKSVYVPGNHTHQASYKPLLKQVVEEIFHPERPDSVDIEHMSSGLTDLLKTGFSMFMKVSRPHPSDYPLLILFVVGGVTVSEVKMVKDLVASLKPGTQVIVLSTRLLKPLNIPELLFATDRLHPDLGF

Compound: CC1Cc2ccccc2N1C(=O)C1CCCN(C1)C(=O)CCl (mixture of isomers) [TRIM25 ligand 11 (diastereomer mixture)]
Assay: probe-labelled cysteine peptide fold change vs DMSO (competition) (log2 fold change); higher = less target engagement (more negative = stronger competition)
Settings: THP-1, incubation time: 4 h
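Note: competitive chemoproteomic profiling in live THP-1 cells with an iodoacetamide desthiobiotin (IA-DTB) probe, comparing probe-labelled peptide intensities in compound-treated cells against DMSO-treated controls.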

Target | probe-labelled cysteine peptide fold change (10 µM) | probe-labelled cysteine peptide fold change (50 µM)
SBDS_Q9Y3A5_84_EDLISAFGTDDQTEICK (UniProt Q9Y3A5) | -0.0659 | 0.0352
SATB1_Q01826_78+91_GTMLPVFCVVEHYENAIEYDCKEEHAEFVLVR (UniProt Q01826) | 0.0353 | 0.0198
SEC31A_O94979_704_LVACWTK (UniProt O94979) | 0.00186 | 0.147
SBDS_Q9Y3A5_216_VIESEDYGQQLEIVCLIDPGCFR (UniProt Q9Y3A5) | -0.0248 | -0.0419
SAR1A_Q9NR31_178_PMEVFMCSVLK (UniProt Q9NR31) | -0.0376 | -0.0221
SCMH1_Q96GD3_76_NTTSTCIATVVGLTGAR (UniProt Q96GD3) | -0.00851 | 0.00583
SCFD2_Q8WU76_79_AVFVLSCLLK (UniProt Q8WU76) | 0.0533 | 0.0933
